# Laboratory results published in article PMC11585102.
# By UniProt entry, the sequences of proteins in these tests, tags left out.
# UniProt P32304: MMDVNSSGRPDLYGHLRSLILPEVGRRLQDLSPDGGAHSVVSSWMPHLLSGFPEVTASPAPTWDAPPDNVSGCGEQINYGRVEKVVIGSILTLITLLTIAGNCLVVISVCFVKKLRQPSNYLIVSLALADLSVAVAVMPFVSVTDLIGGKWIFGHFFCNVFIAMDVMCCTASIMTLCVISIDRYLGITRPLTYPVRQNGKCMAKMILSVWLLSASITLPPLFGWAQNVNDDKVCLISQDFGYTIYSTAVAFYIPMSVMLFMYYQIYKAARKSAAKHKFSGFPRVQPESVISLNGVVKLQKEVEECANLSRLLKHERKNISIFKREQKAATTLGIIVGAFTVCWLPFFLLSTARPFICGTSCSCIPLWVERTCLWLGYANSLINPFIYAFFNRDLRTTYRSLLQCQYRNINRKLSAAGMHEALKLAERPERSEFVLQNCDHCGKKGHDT
# These are yes or no findings as the source states them, for the method shown. Binding seen in cells or lysates may run through a third protein. Some binding calls cover weakened binding; strength is not graded here.
# What was measured:
# [1] = target: serotonin receptor 7 (5-HT7R), eCFP- or eYFP-tagged (UniProt P32304); assay: FRET or BRET; lux-FRET, live-cell confocal imaging (Zeiss LSM 780) of N1E-115 cells co-expressing eCFP (donor)- and eYFP (acceptor)-tagged receptors, 24 h post-transfection, tyrode buffer pH 7.4; apparent FRET efficiency EfD compared with CD86-eCFP/CD86-eYFP
# [2] = target: serotonin receptor 7 (5-HT7R), eCFP- or eYFP-tagged (UniProt P32304); assay: FRET or BRET; lux-FRET on suspensions of N1E-115 cells transfected with varying donor and acceptor amounts, fluorescence spectrometer (Fluorolog-3.22), room temperature, tyrode buffer pH 7.4; apparent FRET efficiency against donor mole fraction fitted to a dimerization model; relative dissociation constants, monomer to dimer
substance,measurement,setting,value
"serotonin receptor 7 (5-HT7R), eCFP- or eYFP-tagged (from UniProt P32304 1-448)",binding,[1],binds
same,binding,[2],binds
